This series has as its target Dicer (ribonuclease Dicer) (Homo sapiens) (UniProt Q9UPY3). Put plainly: enzyme reaction in vitro. Conditions: pre-miRNA substrate cut by Dicer; 5 mM MgCl2, 37 C; purified recombinant protein; label: 5'-32P.

Protein sequences, listed by entry. Tags and fused reporters are not part of them. Lines headed by an entry give the natural chain unless they say otherwise; changes in a name come on top.
UniProt Q9UPY3: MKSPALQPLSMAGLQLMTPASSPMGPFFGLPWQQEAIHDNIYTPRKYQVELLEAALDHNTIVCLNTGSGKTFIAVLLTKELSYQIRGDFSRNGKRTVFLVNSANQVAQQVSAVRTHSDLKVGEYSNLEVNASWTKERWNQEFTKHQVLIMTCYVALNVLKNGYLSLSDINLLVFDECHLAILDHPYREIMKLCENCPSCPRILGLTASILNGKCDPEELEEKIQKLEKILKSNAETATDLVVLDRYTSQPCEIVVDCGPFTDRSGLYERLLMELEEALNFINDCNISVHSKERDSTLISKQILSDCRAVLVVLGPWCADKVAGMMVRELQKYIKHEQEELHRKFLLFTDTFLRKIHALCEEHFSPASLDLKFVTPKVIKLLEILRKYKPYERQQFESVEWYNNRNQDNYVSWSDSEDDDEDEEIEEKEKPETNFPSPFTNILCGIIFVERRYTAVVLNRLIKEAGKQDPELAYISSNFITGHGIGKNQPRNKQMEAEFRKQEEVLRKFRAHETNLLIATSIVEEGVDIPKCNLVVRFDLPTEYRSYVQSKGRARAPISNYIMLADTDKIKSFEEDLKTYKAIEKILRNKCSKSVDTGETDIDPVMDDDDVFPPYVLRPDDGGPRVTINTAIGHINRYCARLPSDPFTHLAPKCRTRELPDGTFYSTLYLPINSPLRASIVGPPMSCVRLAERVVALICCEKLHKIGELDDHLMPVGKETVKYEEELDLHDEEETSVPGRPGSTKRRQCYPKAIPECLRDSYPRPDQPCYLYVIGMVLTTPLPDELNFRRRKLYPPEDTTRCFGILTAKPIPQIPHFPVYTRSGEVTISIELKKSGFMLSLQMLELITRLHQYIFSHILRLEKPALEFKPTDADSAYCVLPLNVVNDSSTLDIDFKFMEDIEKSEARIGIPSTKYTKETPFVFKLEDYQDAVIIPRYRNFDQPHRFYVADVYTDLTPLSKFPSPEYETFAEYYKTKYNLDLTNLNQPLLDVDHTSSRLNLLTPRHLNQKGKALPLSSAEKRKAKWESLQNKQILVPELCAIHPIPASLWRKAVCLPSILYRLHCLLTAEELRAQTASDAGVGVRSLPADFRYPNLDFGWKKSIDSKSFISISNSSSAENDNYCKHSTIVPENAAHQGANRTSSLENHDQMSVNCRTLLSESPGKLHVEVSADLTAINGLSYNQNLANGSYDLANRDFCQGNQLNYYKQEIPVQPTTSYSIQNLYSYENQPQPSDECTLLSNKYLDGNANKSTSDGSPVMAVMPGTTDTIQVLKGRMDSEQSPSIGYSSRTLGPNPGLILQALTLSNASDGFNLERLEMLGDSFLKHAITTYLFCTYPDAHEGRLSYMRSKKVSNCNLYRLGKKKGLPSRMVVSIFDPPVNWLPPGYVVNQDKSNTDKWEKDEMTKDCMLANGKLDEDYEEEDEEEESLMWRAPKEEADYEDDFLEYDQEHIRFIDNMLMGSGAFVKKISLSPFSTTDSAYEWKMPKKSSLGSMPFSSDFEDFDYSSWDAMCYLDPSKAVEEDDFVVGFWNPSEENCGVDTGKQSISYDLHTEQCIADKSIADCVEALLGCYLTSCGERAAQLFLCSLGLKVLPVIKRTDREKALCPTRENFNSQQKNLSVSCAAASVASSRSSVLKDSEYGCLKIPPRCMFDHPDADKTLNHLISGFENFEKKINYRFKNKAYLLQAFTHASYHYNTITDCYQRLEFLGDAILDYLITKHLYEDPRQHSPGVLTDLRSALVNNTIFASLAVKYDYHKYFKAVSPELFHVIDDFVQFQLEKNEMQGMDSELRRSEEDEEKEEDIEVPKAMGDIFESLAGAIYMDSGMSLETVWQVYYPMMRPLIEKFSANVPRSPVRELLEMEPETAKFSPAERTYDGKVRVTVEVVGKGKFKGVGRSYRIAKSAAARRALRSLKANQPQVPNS

As for “GCCCCUGCCCACCGCACACUGCGCUGCCCCAGACCCACUGUGCGUGUGACAGCGGCUG [pre-hsa-miR-210]”, the functional effect entry was “active”.

Take “GUGCAUUGUAGUUGCAUUGCAUGUUCUGGUGGUACCCAUGCAAUGUUUCCACAGUGCAUCA [pre-hsa-miR-33a]”: the functional effect entry is given as “active”.

These data come from patent US20110207197.
